PubChem BioAssay AID602196 – INSERM, 2012

Screen: 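Modifiers of cisplatin sensitivity in A549 cells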
Cell system: human A549 lung cancer cells
Reagents: siRNA pair against human genes
Duration: 48 h transfection before cisplatin; time from cisplatin to read-out not stated
Conditions: cisplatin at a dose killing half of control-siRNA cells; exact dose and duration not given
Detection: 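Shift in cisplatin death relative to control siRNA, from -50 (all cells die) to +50 (no cells die); siRNAs harmful on their own scored 0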
Direction: two-siRNA summed score (-2 to +2): higher = both siRNAs protect from cisplatin killing; -2 means both sensitise; mean protection from cisplatin (shift in death) and protection from cisplatin (shift in death), siRNA C: higher = protection from cisplatin killing
Call rule: 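siRNAs harmful alone (LDH or WST-1) get 0; others get +1 for less and -1 for more cisplatin killing; genes are active when the two siRNAs give the same sign, summing to ±2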
Meaning of the calls: active = both siRNAs shift cisplatin killing the same way; inactive = no consistent shift, or siRNA harmful alone
The whole screen tested about 23,000 reagents; this is an unselected part. Over the whole deposit, 455 (2%) are marked active. 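Active includes both protection and sensitisation; some change values fall well beyond the stated -50 to +50 range.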 Not all columns of the deposit are shown. The record does not give: the amount of reagent.

target,two-siRNA summed score (-2 to +2),mean protection from cisplatin (shift in death) (%),"protection from cisplatin (shift in death), siRNA C (%)",outcome
GPR21 (GeneID 2844),1,11,-6.8,inactive
NAT8B (GeneID 51471),0,8.9,4.2,inactive
PSMG3-AS1 (GeneID 114796),0,1.8,-6.9,inactive
OR2K2 (GeneID 26248),0,14,21.5,inactive
TICRR (GeneID 90381),0,5.4,6.7,inactive
LRRC43 (GeneID 254050),0,16.5,23.8,inactive
ELP6 (GeneID 54859),0,0.7,5,inactive
MIP (GeneID 4284),0,4.2,15.5,inactive
AADAC (GeneID 13),1,-2.1,7.2,inactive
ADCY9 (GeneID 115),-1,-3.1,-8.3,inactive
MSLN (GeneID 10232),-1,-11.8,-2,inactive
DNAH1 (GeneID 25981),0,-0.6,4.3,inactive
DKK1 (GeneID 22943),-1,-29.3,-21.9,inactive
MAP2K4 (GeneID 6416),1,9.7,2.3,inactive
PABIR2 (GeneID 159090),0,3.2,7.5,inactive
LOC164118,0,14.6,14.2,inactive
LOC388489,0,2.2,-9.2,inactive
ATP5PDP3 (GeneID 138864),0,0.7,-8.7,inactive
NEXMIF (GeneID 340533),2,23.2,24.6,active
LOC402184,1,21.4,29.4,inactive
ABCB11 (GeneID 8647),0,13.3,6,inactive
FER (GeneID 2241),-1,-10,-5.6,inactive
HOXB3 (GeneID 3213),0,-1,-8.3,inactive
NR2C2 (GeneID 7182),0,15.2,21.1,inactive
RNF8 (GeneID 9025),0,6.5,4.8,inactive

Continued (10 carried over from the part before).
target,two-siRNA summed score (-2 to +2),mean protection from cisplatin (shift in death) (%),"protection from cisplatin (shift in death), siRNA C (%)",outcome
LOC164118,0,14.6,14.2,inactive
LOC388489,0,2.2,-9.2,inactive
ATP5PDP3 (GeneID 138864),0,0.7,-8.7,inactive
NEXMIF (GeneID 340533),2,23.2,24.6,active
LOC402184,1,21.4,29.4,inactive
ABCB11 (GeneID 8647),0,13.3,6,inactive
FER (GeneID 2241),-1,-10,-5.6,inactive
HOXB3 (GeneID 3213),0,-1,-8.3,inactive
NR2C2 (GeneID 7182),0,15.2,21.1,inactive
RNF8 (GeneID 9025),0,6.5,4.8,inactive
CNGB1 (GeneID 1258),0,-14.3,-26.9,inactive
EVC2 (GeneID 132884),0,-1.7,-5.9,inactive
FGD4 (GeneID 121512),0,3.9,-0.2,inactive
WDR5 (GeneID 11091),0,-18.2,-10.5,inactive
XAGE5 (GeneID 170627),-1,-0.3,-16.6,inactive
LOC442451,0,12.1,14.8,inactive
EBP (GeneID 10682),-1,-21.9,-9.7,inactive
ERVW-1 (GeneID 30816),0,9.7,6.6,inactive
LOC391037,0,4.3,1.4,inactive
DENND6A (GeneID 201627),0,2.8,-8.6,inactive
OR13C8 (GeneID 138802),1,7.2,18.4,inactive
BTBD6 (GeneID 90135),1,18.7,14.1,inactive
FBXO47 (GeneID 494188),0,6.9,3.5,inactive
PIM2 (GeneID 11040),1,21.1,31,inactive
GPR75 (GeneID 10936),-1,-2.1,12.5,inactive
TEKT4 (GeneID 150483),0,8.8,13.7,inactive
CORO2A (GeneID 7464),0,4.4,3.7,inactive
RTL4 (GeneID 340595),1,4.7,-4.1,inactive
BTNL2 (GeneID 56244),-2,-34.5,-31.4,active
CCDC91 (GeneID 55297),0,-4.9,4.6,inactive
COQ9 (GeneID 57017),0,3,-10.2,inactive
NOP9 (GeneID 161424),0,-2.1,-9.1,inactive
LINC02910 (GeneID 284756),0,5.9,4.5,inactive
CTCF (GeneID 10664),0,4.6,11.2,inactive
SPIC (GeneID 121599),0,2.8,1.7,inactive
KLHL2 (GeneID 11275),1,10.2,19.6,inactive
ITFG1 (GeneID 81533),0,-1.1,-5.3,inactive
LINC00052 (GeneID 145978),0,4.3,2.5,inactive
HIC1 (GeneID 3090),1,0.3,-10.9,inactive
BBS5 (GeneID 129880),0,4,13.4,inactive
COX4I1 (GeneID 1327),1,3.6,-9.4,inactive
TRAF3IP3 (GeneID 80342),0,-2.5,-8.9,inactive
OR2G2 (GeneID 81470),0,15.2,11.2,inactive
TIGAR (GeneID 57103),0,-4.1,-1.6,inactive
EFEMP2 (GeneID 30008),0,5.5,30.7,inactive
AGMO (GeneID 392636),0,3.8,3.7,inactive
BCORL1 (GeneID 63035),0,5.7,2.1,inactive
EXO5 (GeneID 64789),0,3.7,3.4,inactive
QPCTL (GeneID 54814),0,-10.4,-5.7,inactive
LOC441686,0,20.9,8.4,inactive
UBE2E2 (GeneID 7325),0,3.1,4,inactive
XRCC2 (GeneID 7516),0,8.4,9.6,inactive
LYPLA2 (GeneID 11313),0,0.3,-1.6,inactive
COG7 (GeneID 91949),0,1.8,3.2,inactive
ANKIB1 (GeneID 54467),0,9.1,24.8,inactive
DNASE2 (GeneID 1777),0,-5.7,-5.8,inactive
RIOK3 (GeneID 8780),1,5.3,17.4,inactive
AEBP1 (GeneID 165),0,-6.8,-3.4,inactive
